Binding data for three molecules are collected here from paper PMC10069870.

Amino acid sequences for entries named in this document (tags omitted).
UniProt Q15327: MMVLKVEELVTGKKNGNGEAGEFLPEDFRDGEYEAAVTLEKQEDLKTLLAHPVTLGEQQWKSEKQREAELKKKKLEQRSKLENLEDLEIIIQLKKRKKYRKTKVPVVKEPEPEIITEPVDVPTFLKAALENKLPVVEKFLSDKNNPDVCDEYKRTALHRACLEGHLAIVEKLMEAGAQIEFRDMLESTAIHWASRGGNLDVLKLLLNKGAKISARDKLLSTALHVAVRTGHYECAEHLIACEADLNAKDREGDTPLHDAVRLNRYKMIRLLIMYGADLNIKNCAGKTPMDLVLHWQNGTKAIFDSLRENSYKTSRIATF

In assay [1] the target is T1, N-terminal region of human PALLD comprising Ig1 and Ig2 (amino acids 1-528) (human) (UniProt Q8WX93).
T1 sequence: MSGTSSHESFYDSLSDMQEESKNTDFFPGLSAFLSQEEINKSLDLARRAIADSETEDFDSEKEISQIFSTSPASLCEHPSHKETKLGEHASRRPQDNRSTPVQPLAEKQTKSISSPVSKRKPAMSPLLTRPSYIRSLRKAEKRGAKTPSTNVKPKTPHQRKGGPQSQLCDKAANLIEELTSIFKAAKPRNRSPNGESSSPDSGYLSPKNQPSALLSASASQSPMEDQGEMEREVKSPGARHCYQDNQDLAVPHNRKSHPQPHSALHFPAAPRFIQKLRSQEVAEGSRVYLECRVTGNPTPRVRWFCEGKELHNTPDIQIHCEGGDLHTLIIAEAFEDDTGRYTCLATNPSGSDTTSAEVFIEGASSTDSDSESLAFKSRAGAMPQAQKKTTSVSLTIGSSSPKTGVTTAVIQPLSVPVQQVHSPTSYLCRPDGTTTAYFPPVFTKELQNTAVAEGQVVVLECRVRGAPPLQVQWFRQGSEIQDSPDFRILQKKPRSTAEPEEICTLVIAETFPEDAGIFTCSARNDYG
Nature of the assay: two-hybrid; cotransformation of pGBKT7 DNA-BD and pGADT7-AD constructs into the Y2H Gold yeast strain, spotted on SD/-Ade/-His/-Leu/-Trp/AbA/X-alpha-Gal plates, 3-4 d at 30°C.

The target in assay [2] is T1, N-terminal region of human PALLD comprising Ig1 and Ig2 (amino acids 1-528) (human). Nature of the assay: two-hybrid; Matchmaker Gold yeast two-hybrid screening; bait PALLD aa 1-528 in pGBKT7 combined with a Mate & Plate Human Heart library; selection on SD/-Ade/-His/-Leu/-Trp/AbA, then X-alpha-Gal plates, 30°C.
For assay [3], the target named is T2, human MYPN N-term start-Ig2 (aa 1-522) (human) (UniProt Q86TC9).
T2 sequence: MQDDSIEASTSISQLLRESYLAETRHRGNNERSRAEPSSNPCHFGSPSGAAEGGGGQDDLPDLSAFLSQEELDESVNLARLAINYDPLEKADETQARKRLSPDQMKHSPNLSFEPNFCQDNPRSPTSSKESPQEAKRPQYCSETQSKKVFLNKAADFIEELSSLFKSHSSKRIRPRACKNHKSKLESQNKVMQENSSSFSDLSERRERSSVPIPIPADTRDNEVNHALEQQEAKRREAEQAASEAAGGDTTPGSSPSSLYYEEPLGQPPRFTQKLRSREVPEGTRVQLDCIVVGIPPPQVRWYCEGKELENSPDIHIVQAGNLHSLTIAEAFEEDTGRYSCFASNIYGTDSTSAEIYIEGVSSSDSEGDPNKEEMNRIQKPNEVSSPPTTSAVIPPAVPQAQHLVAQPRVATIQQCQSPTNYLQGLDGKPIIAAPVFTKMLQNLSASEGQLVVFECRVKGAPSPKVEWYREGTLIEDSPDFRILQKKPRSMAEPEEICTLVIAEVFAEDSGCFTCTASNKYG
Put plainly: two-hybrid; cotransformation of pGBKT7 DNA-BD and pGADT7-AD constructs into the Y2H Gold yeast strain, spotted on SD/-Ade/-His/-Leu/-Trp/AbA/X-alpha-Gal plates, 3-4 d at 30°C.

These are yes or no findings as the source states them, for the method shown. Some results given as binding are weak or reduced against the parent protein; the word gives no strength.

Take “human CARP full-length (pGADT7-AD) (from UniProt Q15327 1-319)”: in assay [1], the binding entry is given as “binds”.

B1: human FHOD1 aa 965-1164 (the 200 C-terminal amino acid residues) (domain or fragment, UniProt Q9Y613 965-1164)
chain: PQAAREVRIMQFCHTLREFALEYRTCRERVLQQQQKQATYRERNKTRGRMITETEKFSGVAGEAPSNPSVPVAVSSGPGRGDADSHASMKSLLTSRPEDTTHNRRSRGMVQSSSPIMPTVGPSTASPEEPPGSSLPSDTSDEIMDLLVQSVTKSSPRALAARERKRSRGNRKSLRRTLKSGLGDDLVQALGLSKGPGLEV
B1: the binding result in assay [2] is “binds”.

B2: human FHOD1 aa 965-1052 (domain or fragment, UniProt Q9Y613 965-1052)
chain: PQAAREVRIMQFCHTLREFALEYRTCRERVLQQQQKQATYRERNKTRGRMITETEKFSGVAGEAPSNPSVPVAVSSGPGRGDADSHAS
Turning to B2, the binding result in assay [1] and in assay [3] was “binds” in each case.
